From US20060019335A1, “Compositions and methods to promote c-IAP autodegradation” (priority 2004, published 2006)

Biological target: T1, GST fusion protein of Livin β (human) (UniProt Q96CA5)
T1 sequence (looked up): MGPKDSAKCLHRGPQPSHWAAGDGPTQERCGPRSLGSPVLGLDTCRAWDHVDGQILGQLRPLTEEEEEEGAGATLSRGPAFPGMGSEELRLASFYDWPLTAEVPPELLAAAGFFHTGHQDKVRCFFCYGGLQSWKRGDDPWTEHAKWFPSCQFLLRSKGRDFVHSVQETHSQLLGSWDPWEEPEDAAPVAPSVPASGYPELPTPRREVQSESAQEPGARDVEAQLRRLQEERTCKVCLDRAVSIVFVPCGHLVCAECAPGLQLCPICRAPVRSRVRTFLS
Assay: GST pull-down at equimolar concentrations, silver stain of supernatants (FIG. 4)

Substance: C-terminal (His)9-tagged mature form Smac polypeptide (wild type) (ligand)
- binding: binds

Results are given in words; binding and its absence hold for the method and conditions named. Binding seen in cells or lysates may run through a third protein. A result given as binding can be weak or reduced; the word gives no strength. Where a sequence is shown, tags or fusion partners need not be part of it.
